Results from publication PMC6328613.
These are yes or no findings as the source states them, for the method shown. For some of these results: Binding can be weak; no strength is given. Tags and fused reporters may be left off the sequences shown. For some of these results: Binding seen in cells or lysates may run through a third protein.

T1: MBP-Scyl1 (UniProt Q96KG9)
T1 sequence: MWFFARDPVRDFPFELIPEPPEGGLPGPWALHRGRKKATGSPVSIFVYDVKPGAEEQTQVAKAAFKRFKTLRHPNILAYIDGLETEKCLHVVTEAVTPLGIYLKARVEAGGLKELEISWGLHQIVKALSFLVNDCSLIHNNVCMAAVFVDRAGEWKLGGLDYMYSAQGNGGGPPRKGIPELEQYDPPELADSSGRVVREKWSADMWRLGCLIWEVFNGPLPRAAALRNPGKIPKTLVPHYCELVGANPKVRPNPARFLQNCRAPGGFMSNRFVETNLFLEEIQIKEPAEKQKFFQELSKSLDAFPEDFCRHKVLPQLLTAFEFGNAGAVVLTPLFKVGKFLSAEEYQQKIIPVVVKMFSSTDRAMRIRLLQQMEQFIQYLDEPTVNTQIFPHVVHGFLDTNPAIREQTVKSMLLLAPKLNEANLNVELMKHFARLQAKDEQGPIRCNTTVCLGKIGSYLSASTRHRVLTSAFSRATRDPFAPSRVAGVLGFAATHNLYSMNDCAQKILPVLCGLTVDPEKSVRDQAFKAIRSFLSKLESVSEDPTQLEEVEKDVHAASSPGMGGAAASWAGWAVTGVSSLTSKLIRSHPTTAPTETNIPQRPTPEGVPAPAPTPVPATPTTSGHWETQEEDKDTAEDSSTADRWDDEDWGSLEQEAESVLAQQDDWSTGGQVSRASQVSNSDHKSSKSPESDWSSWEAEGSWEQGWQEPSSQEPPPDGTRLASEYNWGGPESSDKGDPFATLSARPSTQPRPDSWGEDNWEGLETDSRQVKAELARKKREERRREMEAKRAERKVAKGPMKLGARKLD

B1: GFP-Scyl1 (protein, UniProt Q96KG9 1-808)
chain: T1 sequence

Tests used:
MBP-Scyl1 = target: T1, MBP-Scyl1; assay: SPR; ProteOn XPR36, GLH chip; cross-linked anti-MBP antibody, MBP-Scyl1 captured (3000 RU), GST-GORAB variants as analyte at 30 nM, 100 µL/min, 120 s association, 600 s dissociation; 150 mM NaCl, 10 mM HEPES, 0.02% Tween-20, pH 7.4; both purified
[1] = target: GORABK190del-mycFKBP (human); assay: mitochondrial relocation assay (fluorescence microscopy); HeLaM cells co-transfected with mito-FRB and GORAB-mycFKBP (K190del or wild type); 2.5 µg/mL nocodazole 2 h, then 1 µM rapamycin 3 h; in some samples 5 µg/mL BFA for 15 min; recruitment of co-expressed or endogenous proteins to mitochondria
[2] = target: GORAB-mycFKBP (wild type) (human); assay: as above
GST-GORAB (human) = assay: pull-down; GST or GST-GORAB as bait with lysates of cells transiently expressing GFP-tagged Scyl1 constructs; western blotting; only the target purified

Molecule | binding (MBP-Scyl1) | binding [1] | binding [2] | binding (GST-GORAB (human))
GST-GORAB F8L (human) | no binding (tested: 30 nM) | – | – | –
B1 | – | binds | binds | binds
